The text below walks through data of publication PMC10641673.

By UniProt entry, the sequences of proteins in these tests, tags left out.
UniProt P08047: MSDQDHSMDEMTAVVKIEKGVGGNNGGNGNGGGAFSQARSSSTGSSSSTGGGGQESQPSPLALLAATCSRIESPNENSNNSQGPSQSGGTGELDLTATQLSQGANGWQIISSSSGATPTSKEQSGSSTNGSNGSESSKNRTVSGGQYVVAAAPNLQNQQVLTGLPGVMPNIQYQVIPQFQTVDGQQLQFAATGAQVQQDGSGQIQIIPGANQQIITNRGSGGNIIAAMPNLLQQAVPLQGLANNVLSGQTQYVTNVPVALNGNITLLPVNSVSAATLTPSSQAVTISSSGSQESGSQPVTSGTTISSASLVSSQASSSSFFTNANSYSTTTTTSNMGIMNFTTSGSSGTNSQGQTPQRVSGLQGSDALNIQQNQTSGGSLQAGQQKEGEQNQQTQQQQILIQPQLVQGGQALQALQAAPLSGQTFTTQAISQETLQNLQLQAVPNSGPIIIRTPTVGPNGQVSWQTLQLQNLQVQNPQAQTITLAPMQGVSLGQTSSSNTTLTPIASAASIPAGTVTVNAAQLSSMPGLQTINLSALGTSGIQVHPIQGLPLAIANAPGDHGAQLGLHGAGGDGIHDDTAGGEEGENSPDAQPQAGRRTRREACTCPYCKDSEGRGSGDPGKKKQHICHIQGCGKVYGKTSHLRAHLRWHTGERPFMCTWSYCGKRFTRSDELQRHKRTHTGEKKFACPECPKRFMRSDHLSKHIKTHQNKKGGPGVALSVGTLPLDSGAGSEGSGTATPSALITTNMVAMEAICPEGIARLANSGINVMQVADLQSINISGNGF

Assay [1] concerns the target specific protein 1 transcription factor (Sp1) (human (endogenous in HCC1806 and HCC1937)) (UniProt P08047). In words: co-IP; nuclear cell lysates of HCC1806 and HCC1937 cells, Western blot. (Immunoblotting shows a protein as a band on a membrane.)
Assay [2] shares this target. In words: co-IP; cytoplasmic cell lysates of HCC1806 and HCC1937 cells, Western blot.
The target is the same in assay [3]. Kind of assay: co-IP; lysates of HCC1806 and HCC1937 cells (150 mM NaCl, 1 mM EDTA pH 8.0, 50 mM Tris-HCl pH 7.4, 1% Triton X-100), indicated antibodies 36 h at 4 °C, protein A/G magnetic beads, Western blot; IgG as negative control.

No constants are given. Whether binding was seen depends on the method and setting. Binding seen in cells or lysates may run through a third protein. Some binding calls cover weakened binding; strength is not graded here.

B1: ε-Sarcoglycan (SGCE) (protein, UniProt O43556 1-437)
chain: MQLPRWWELGDPCAWTGQGRGTRRMSPATTGTFLLTVYSIFSKVHSDRNVYPSAGVLFVHVLEREYFKGEFPPYPKPGEISNDPITFNTNLMGYPDRPGWLRYIQRTPYSDGVLYGSPTAENVGKPTIIEITAYNRRTFETARHNLIINIMSAEDFPLPYQAEFFIKNMNVEEMLASEVLGDFLGAVKNVWQPERLNAINITSALDRGGRVPLPINDLKEGVYVMVGADVPFSSCLREVENPQNQLRCSQEMEPVITCDKKFRTQFYIDWCKISLVDKTKQVSTYQEVIRGEGILPDGGEYKPPSDSLKSRDYYTDFLITLAVPSAVALVLFLILAYIMCCRREGVEKRNMQTPDIQLVHHSAIQKSTKELRDMSKNREIAWPLSTLPVFHPVTGEIIPPLHTDNYDSTNMPLMQTQQNLPHQTQIPQQQTTGKWYP
Turning to B1, the binding entry in assay [1] is listed as “binds”; in assay [2], “no binding (condition: in the cytoplasmic cell lysate)”; in assay [3], “binds”.
